In PubChem BioAssay AID1671190 (National Center for Advancing Translational Sciences (NCATS), 2021):
Several values for one entry are separate records, joined by “and”; a condition that tells them apart may be missing. Equal values may be shown once. About 6,100 (1.1%) of roughly 580,000 compounds were called active. The inconclusive results got no clear call from the source; some entries with a clear call stand among them for comparison. Calls come from the whole dose curve; as a rule, active = well fitted inhibition curve with a large enough effect; inconclusive = small, poorly fitted or top-dose-only effect, or another doubt; inactive = no such curve, though single readings can be large or run the other way. A potency beside an inconclusive call is a rough fit, not a confirmed value.

Amino acid sequences for entries named in this document (tags omitted). A change or cut given only in a name is not applied to a line headed by its entry.
UniProt P18054: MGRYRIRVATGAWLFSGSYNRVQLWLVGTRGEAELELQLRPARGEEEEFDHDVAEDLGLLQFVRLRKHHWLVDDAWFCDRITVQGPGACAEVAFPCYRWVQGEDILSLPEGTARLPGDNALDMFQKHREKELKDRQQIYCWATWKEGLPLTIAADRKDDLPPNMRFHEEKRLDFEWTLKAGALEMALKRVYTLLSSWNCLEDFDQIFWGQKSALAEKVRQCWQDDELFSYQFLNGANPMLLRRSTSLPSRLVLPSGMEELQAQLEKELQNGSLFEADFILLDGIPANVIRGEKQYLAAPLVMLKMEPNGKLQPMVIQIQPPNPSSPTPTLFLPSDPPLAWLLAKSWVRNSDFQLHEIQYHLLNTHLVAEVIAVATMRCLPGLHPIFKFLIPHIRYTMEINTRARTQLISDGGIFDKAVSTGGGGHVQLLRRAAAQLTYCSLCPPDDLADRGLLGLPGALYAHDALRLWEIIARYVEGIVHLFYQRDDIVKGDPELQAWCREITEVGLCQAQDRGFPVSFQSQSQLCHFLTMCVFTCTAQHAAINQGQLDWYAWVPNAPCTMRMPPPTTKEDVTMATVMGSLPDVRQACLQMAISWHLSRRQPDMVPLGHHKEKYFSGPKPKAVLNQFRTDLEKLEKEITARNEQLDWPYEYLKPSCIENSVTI

Target: Polyunsaturated fatty acid lipoxygenase ALOX12 (Homo sapiens) (UniProt P18054)
Assay: Primary qHTS assay for inhibitors of human arachidonate 12S-lipoxygenase (ALOX12): Round 2
Conditions: purified 12hLO, xylenol orange hydroperoxide absorbance; activity change, negative = inhibition: at 108 µM (top of the series) unless noted
Procedure, shortened: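 Hydroperoxide product was detected by ferrous iron/xylenol orange as the 573 to 405 nm absorbance ratio. Arachidonic acid at 40 uM (final) was turned over for 30 min at room temperature by 150 nM human 12hLO, pH 7.0 Hepes buffer, after 15 min compound preincubation.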
% is set by controls: 0 for no effect and ±100 for the full control effect; potency is the fitted concentration of half-maximal effect.

Compound	Potency	activity change, negative = inhibition
COc1ccc(NC(=S)N2CCC(Cc3ccccc3)CC2)cc1	inconclusive: 44.7 µM [inhibitor, partial curve, poor fit]	
COc1ccc(-c2cc(-c3ccccc3)nc(NN)n2)cc1OC	inconclusive: 14.1 µM [inhibitor, full curve, poor fit]	
CCOC(=O)C1CCCN(C(=O)c2ccc(S(=O)(=O)NCc3ccco3)cc2)C1 (stereo not drawn)	inconclusive: 50.1 µM [inhibitor, partial curve, poor fit]	
CCN(CC)c1ccc(C=NN2CCCCCC2)cc1	inconclusive: 50.1 µM [inhibitor, partial curve, poor fit]	
O=C(Nc1ccccc1)C1CCCN(c2cnc3nccnc3c2)C1 (stereo not drawn)	inconclusive: 44.7 µM [inhibitor, partial curve]	
CC(C)NC(=O)CN1C(=O)NC(c2ccc(Cl)cc2)C2=C1COC2=O (stereo not drawn)		inactive: 62.2%
Cc1csc(/C(C#N)=C\c2ccccc2OC(F)F)n1		inactive: -0.902%
COc1ccc(NC(=O)CN(C)C(=O)c2ccccc2Sc2ncnc3sc(C)c(C)c23)cc1		inactive: -24.9%
CCOC(=O)N1CCC(Oc2cnc3c(ccn3-c3cncnc3)c2)CC1	inconclusive: 31.6 µM [inhibitor, full curve]	
O=C(Nc1ccc2c(c1)OCCO2)C1c2ccccc2OCC(=O)N1CCc1ccccc1 (stereo not drawn)	inconclusive: 89.1 µM [inhibitor, single point]	
Cc1ccc(C(C)C)c(Oc2ccc(C(=O)O)cc2)c1	inconclusive: 79.4 µM [inhibitor, single point]	
CCC(=O)N(CCC(Cc1ccccc1)c1ccco1)Cc1ccco1 (stereo not drawn)		inactive: -8.91%
CCOC(=O)c1ccc(NS(=O)(=O)c2cc3c(cc2C)NC(=O)CO3)cc1	inconclusive: 89.1 µM [inhibitor, single point]	
COC(=O)c1c(-c2ccc(C)cc2)csc1NC(=S)NC(=O)c1ccc(F)cc1	inconclusive: 1.78 µM [inhibitor, full curve, poor fit]	
CCOc1ccc(C(=O)NCCc2csc(-c3cccc(C)c3)n2)cc1	inconclusive: 79.4 µM [inhibitor, partial curve, poor fit]	
Cc1ccc(-c2nc3ccc(Br)cn3c2Cc2cccc(F)c2)cc1	inconclusive: 50.1 µM [inhibitor, partial curve, poor fit]	
N#CC1(Nc2ccc(Br)cc2)CCCC1	inconclusive: 39.8 µM [inhibitor, single point]	
FC(F)Oc1cccc(-c2ccnc(=S)[nH]2)c1	inconclusive: 50.1 µM [inhibitor, partial curve, poor fit]	
Cc1ccc(/C=N/N2CCN(c3ccncc3S(=O)(=O)N3CCCCC3)CC2)cc1		inactive: 17%
CCCCNC(=O)C1(C)CCCCN1Cc1ccc2ccccc2c1 (stereo not drawn)	inconclusive: 50.1 µM [inhibitor, partial curve, poor fit]	
Cc1ccc(C)c(S(=O)(=O)N2CCN(C(=O)[C@H](Cc3ccccc3)NC(=O)c3ccco3)CC2)c1		inactive: -5.44%

Taken from above:
COc1ccc(NC(=S)N2CCC(Cc3ccccc3)CC2)cc1 | Potency: inconclusive: 44.7 µM [inhibitor, partial curve, poor fit]
CCN(CC)c1ccc(C=NN2CCCCCC2)cc1 | Potency: inconclusive: 50.1 µM [inhibitor, partial curve, poor fit]

Further records follow:

Compound	Potency	activity change, negative = inhibition
O=C(O)C(Cc1c[nH]c2ccccc12)NS(=O)(=O)c1ccc(Cl)c(C(F)(F)F)c1 (stereo not drawn)	active: 39.8 µM	
CCn1nccc1C(=O)N1CCc2nc3cc(-c4ccccc4Cl)[nH]n3c(=O)c2C1	inconclusive: 15.8 µM [inhibitor, partial curve, poor fit]	
CC(=O)Nc1ccc(S(=O)(=O)Nc2nc3nc(-c4ccccc4)cc(-c4ccccc4)n3n2)cc1	inconclusive: 63.1 µM [inhibitor, partial curve, poor fit]	
CC(=O)c1ccc(NC(=O)Cc2ccc3c(c2)CCC3)cc1	inconclusive: 141 µM [inhibitor, single point]	
CC1=[N+](C)c2ccc3ccccc3c2C1(C)C	inconclusive: 56.2 µM [inhibitor, partial curve, poor fit]	
Cc1cc(C)cc(Cn2c3ccc(NC(=O)NCc4ccc(F)cc4)cc3c(=O)n2C)c1	inconclusive: 17.8 µM [inhibitor, full curve, poor fit]	
Cc1cc(Cl)ccc1NC(=S)NCc1ccccc1	inconclusive: 39.8 µM [inhibitor, partial curve, poor fit]	
O=[N+]([O-])c1ccc(C=Nc2ccc(Cl)c([N+](=O)[O-])c2)s1	inconclusive: 44.7 µM [inhibitor, partial curve, poor fit]	
Cc1ccc(C)c(N2CCN(CCCNC(=O)c3ccc4nc(N5CCC(C)CC5)sc4c3)CC2)c1	inconclusive: 89.1 µM [inhibitor, partial curve, poor fit]	
FC(F)(F)c1cnc(Sc2nnc(C3CC3)n2C2CC2)c(Cl)c1		inactive: -53.4%
Cc1cc2[nH]c(=S)[nH]c2cc1C	inconclusive: 44.7 µM [inhibitor, partial curve, poor fit]	
COc1cc(/C=C/c2cc[n+](C)cc2)ccc1OCC(=O)Nc1ccc(Cl)c(Cl)c1	active: 50.1 µM	
O=C(O)CCCC(=O)N1N=C(c2ccsc2)CC1c1ccc(F)cc1 (stereo not drawn)		inactive: 21%
CCc1ccc(C2=NN(CCC(=O)NCCc3ccccc3)C(=O)CC2)cc1	inconclusive: 50.1 µM [inhibitor, partial curve, poor fit]	
CC1(c2ccc(Cl)cc2)NC(=O)N(CC(=O)NCc2ccc(F)cc2)C1=O (stereo not drawn)		inactive: 5.28%
CCOc1cc(NC(=S)NCCCN2CCOCC2)c(OCC)cc1NC(=O)C(C)C	inconclusive: 112 µM [inhibitor, partial curve, poor fit]	
N#Cc1ccc(OCCCOc2ccc(C#N)cc2)cc1		inconclusive: -41% [inhibitor]
CCOC(=O)C1=C(N)Oc2cc(O)ccc2C1c1ccc(C)cc1 (stereo not drawn)	inconclusive: 50.1 µM [inhibitor, partial curve, poor fit] and inconclusive: 35.5 µM [inhibitor, partial curve, poor fit]	
Oc1cccc(C(O)CNCc2ccc(-c3ccccc3)cc2)c1 (stereo not drawn)	inconclusive: 44.7 µM [inhibitor, partial curve]	
COc1ccc(NC(=O)C(=O)NCc2ccc(C)cc2)c(OC)c1		inactive: 8.81%
O=S(Cc1ccccc1)Cc1c(Cl)cccc1Cl (stereo not drawn)		inactive: -6.45%

Compound	Potency	activity change, negative = inhibition
COc1cc(C2NC(=O)NC(C)=C2C(=O)OC2CCCC(C)C2)ccc1O (stereo not drawn)	inconclusive: 79.4 µM [inhibitor, single point]	
O=C(O)CC(C(=O)O)N1C(=O)/C(=C/c2ccc(-c3nc4ccccc4s3)o2)SC1=S (stereo not drawn)	active: 15.8 µM	
O=C(Nc1ccc(C(F)(F)F)cc1)C1CCN(/C=C/C(=O)C(F)(F)F)CC1	inconclusive: 31.6 µM [inhibitor, single point]	
COC(=O)C1=CN(C(C)C)C=C(C(=O)OC)C1c1cc2c(cc1Br)OCO2	inconclusive: 39.8 µM [inhibitor, partial curve, poor fit]	
CCOc1ncccc1C(=O)OCC(=O)N1CCC(C)CC1	inconclusive: 31.6 µM [inhibitor, partial curve, poor fit]	
Cc1ccc(C)c(N(C(=O)CCC(=O)Nc2cc(C)on2)C(C(=O)NC2CCCC2)c2ccco2)c1 (stereo not drawn)		inactive: 66.2%
COc1cccc(-c2ccc3ncnc(NC4CCNCC4)c3c2)c1	inconclusive: 8.91 µM [inhibitor, full curve, poor fit]	
CCc1cc(=O)oc2cc(OCc3nn[nH]n3)ccc12	inconclusive: 11.2 µM [inhibitor, full curve, poor fit]	
CC(C)c1cccc(C(C)C)c1NC(=O)COC(=O)Cc1n[nH]c(=O)c2ccccc12	inconclusive: 35.5 µM [inhibitor, partial curve, poor fit]	
COc1ccccc1Nc1nc(-c2ccccc2)c(CC(=O)O)s1		inactive: -8.61%
COc1cc2ccccc2cc1C(=O)Nc1ccc2oc(-c3ccncc3)nc2c1	inconclusive: 50.1 µM [inhibitor, partial curve, poor fit]	
Cc1ccc(NC(=O)c2nn(Cc3ccccc3)c(=O)c3ccccc23)cc1F	inconclusive: 28.2 µM [inhibitor, partial curve, poor fit]	
CCCS(=O)(=O)N1CCN(Cc2cc(=O)n3nc(-c4ccc(Cl)cc4)sc3n2)CC1	inconclusive: 56.2 µM [inhibitor, partial curve, poor fit]	
O=C(N[C@@H]1CCOC[C@H]1OCCO)c1cc(C2CC2)nc2ccccc12	inconclusive: 2.51 µM [inhibitor, full curve, poor fit]	
COC(=O)c1ccc(COc2ccc3c(=O)c(Oc4ccc(OC)cc4)c(C(F)(F)F)oc3c2)cc1	inconclusive: 35.5 µM [inhibitor, partial curve, poor fit]	
COc1ccc2[nH]c(=O)c(CCC(=O)N3CCN(CC(C)C)CC3)cc2c1	inconclusive: 14.1 µM [inhibitor, full curve, poor fit]	
Cc1ccc2nc3c(cc(C(=O)NC4CCCC4)c(=N)n3C(C)C)c(=O)n2c1	inconclusive: 89.1 µM [inhibitor, partial curve, poor fit]	
Clc1cccc(CN2CCC(Cc3ccccc3)CC2)c1	inconclusive: 1.12 µM [inhibitor, full curve]	
O=C(NCC1CCN(c2cc(-c3ccccc3)[nH]n2)CC1)c1n[nH]c2c1CCCC2		inactive: 64.2%
CCOC(=O)c1ccc(N2CCN(CC)CC2)c(NC(=O)COc2ccc(CC)cc2)c1	inconclusive: 35.5 µM [inhibitor, partial curve, poor fit]	
CCN(CC)Cc1nc2nc(Cl)c(Cl)nc2[nH]1	inconclusive: 22.4 µM [inhibitor, partial curve, poor fit]	
